According to patent US8124742:
No constants are given. Whether binding was seen depends on the method and setting. Some entries that bind do so weakly or less than the wild type.

Amino acid sequences for entries named in this document (tags omitted). Residues count along the entry.
UniProt Q02161, residues 2-417: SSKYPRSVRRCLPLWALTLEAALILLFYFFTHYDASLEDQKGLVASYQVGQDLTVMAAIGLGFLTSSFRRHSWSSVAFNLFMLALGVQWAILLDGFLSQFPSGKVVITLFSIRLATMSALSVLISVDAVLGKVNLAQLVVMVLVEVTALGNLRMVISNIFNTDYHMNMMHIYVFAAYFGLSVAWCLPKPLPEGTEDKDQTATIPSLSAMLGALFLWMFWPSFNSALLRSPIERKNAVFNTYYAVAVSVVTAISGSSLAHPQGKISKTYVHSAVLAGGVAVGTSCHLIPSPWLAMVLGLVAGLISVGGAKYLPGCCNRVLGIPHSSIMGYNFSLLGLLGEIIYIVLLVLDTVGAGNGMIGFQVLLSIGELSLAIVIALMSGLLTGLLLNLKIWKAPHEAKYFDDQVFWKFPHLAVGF

Target: human Rh(D) antigen on Rh(D)-positive red blood cells (human) (UniProt Q02161)
Test: agglutination, anti-M13

B1: SH17 (Fab, V domains shown)
VH: EVQLLESGGGLVQPGGSLRLSCGASGIPFVSSWMAWVRQAPGKGLEWVANIKQDGSKKNYVDSVEGRFTISRDNAKNSLYLQMDSLRAEDTRIYYCARDSLTCFDYWGQGALVTVSS
VL: AELQDPVVSVALGQTVRITCQGDGLRSYYASWYQQKPGQAPKLVMYGRNNRPSGIPGRFSGSSSGQTAALTITGTQAEDEADYYCQSRATSGNPVVFGGGTKLTVL
With B1 as the binder, how does the binding read?
Its binding is “binds”.

B2: SH56 (Fab, V domains shown)
VH: EVQLLESGGGVVQPGRSLRLSCAASGFTFSSYGMHWVRQAPGKGLEWVAVVYYDGSNKHYSDSVKGRFTIFRDNSKNTLYLQMDSLRAEDTAVYYCARERNFRSGYSRYYYGMDVWGPGTTVTVSS
VL: AELTQSPSSLSASVGDRVTITCRASQSISRYLNWYQQKPGKAPKLLIYAASSLQSGVPSRFSGSGSGTDFALTISSLLPEDFATYYCQQGYSTPPYSFGQGTKLEIKR
With B2 as the binder, how does the binding read?
The binding was “binds”.
